PubChem BioAssay AID2685 (National Center for Advancing Translational Sciences (NCATS), 2010)
This is one part of the list. Further columns of the screen follow, without active or inactive calls. Compounds called inactive in the main read-out are mostly missing here. Words in brackets tell the shape of the fitted curve; partial curves, single points and poor fits give uncertain potencies.

Test: qHTS Assay for Lipid Storage Modulators in Drosophila S3 Cells;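 as to cell number change: cells counted by Cell Tracker Red CMTPX staining in the red channel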
Conditions: BODIPY lipid droplet fluorescence, 18-24 h; for cell number change: measured here: cell count max response, cells fed with added oleic acid
Method in brief: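 Laser-scanning cytometry quantifies lipid droplet accumulation (500–530 nm total intensity; droplet/cell object ratio) in oleic acid-fed (400 uM added) Drosophila S3 cells treated with a concentration series. 20 uM Triacsin C defined 100% inhibition.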

[1] = measured here: lipid fluorescence (Fed channel) AC50, cells fed with added oleic acid
[2] = measured here: cell number channel AC50, cells fed with added oleic acid

SMILES	AC50 [1]	cell number change [%]	AC50 [2]
C=CCN(c1ccc(C(=O)Nc2cc(C)cc(C)c2)cc1)S(C)(=O)=O	2.91 µM [rising, single point]		
CCOC(=O)n1c(=O)n(Cc2ccccc2)c2ccccc21	23.1 µM [rising, single point]		
CC1(C)CC(=O)C(CS(=O)(=O)c2ccccc2)=C(O)C1	20.6 µM [falling, single point]	8.31	
CC1CCCCC1NC(=O)CSc1nnc(-c2ccco2)n1C (stereo not given)	0.00461 µM [rising, full curve, poor fit]	16.6	
COc1ccc(Cl)cc1Nc1nc(-c2sc(NC(=O)C(C)(C)C)nc2C)cs1	6.51 µM [falling, full curve]	-28	
CCOC(=O)c1c(NC(=O)CSc2nnnn2-c2ccccc2OCC)sc2c1CC(C)(C)NC2(C)C			3.26 µM [rising, single point]
Cc1ccccc1N1CCN(C(=S)c2ccc(-c3ccc([N+](=O)[O-])cc3)o2)CC1		-59	8.2 µM [falling, partial curve, poor fit]
CC(=O)c1ccc(OCc2ccccc2)c(C)c1O	18.4 µM [rising, single point]	23.7	
O=C(Nc1ccccc1C(=O)O)c1cc(S(=O)(=O)N2CCOCC2)c(Br)s1	0.651 µM [rising, full curve]		
Cc1cccc(NC(=O)c2oc3ccc(S(=O)(=O)N4CCOCC4)cc3c2C)c1C		-22.2	0.411 µM [falling, partial curve, poor fit]
O=C1C=C(/C=C/c2ccccc2)C[C@@H](c2ccc(F)cc2)C1		-7.82	
Cc1cccc(Nc2ccc(C(=O)O)cc2[N+](=O)[O-])c1C	6.51 µM [rising, single point]	28.2	
O=C(COc1ccc2oc(-c3ccccc3)cc(=O)c2c1)Nc1ccccc1	23.1 µM [falling, single point]	-22.2	2.59 µM [falling, single point]
CCn1cc(/C=C(\NC(=O)c2ccc(OC)c(OC)c2)C(=O)NCCCO)c2ccccc21	4.11 µM [rising, single point]	5.36	
CCOC(=O)C1(CCOc2ccccc2)CCN(Cc2cccc(OC)c2O)CC1	20.6 µM [falling, single point]	-3.75	
CC1CC(Nc2ccccc2N)=CC(=O)O1 (stereo not given)	6.51 µM [falling, single point]	-3.9	0.13 µM [falling, full curve, poor fit]
O=C(CN1CCOCC1)NNC(=S)Nc1ccc(Cl)cc1	0.00411 µM [falling, full curve, poor fit]	2.49	
COCCN(C(=O)CSc1nnc(-c2ccccc2OC)o1)c1c(N)n(CC(C)C)c(=O)[nH]c1=O	1.64 µM [falling, partial curve]	-41.3	29.1 µM [falling, single point]
O=C(C1=C[C@@H](c2ccc(Br)cc2)C[C@@H](OCCCCO)O1)N1CCN(Cc2ccccc2)CC1	14.6 µM [falling, single point]	3.18	
CC1CCCC(C)N1C(=O)C1CCCCC1 (stereo not given)	0.103 µM [falling, full curve]	-24.2	

SMILES	AC50 [1]	cell number change [%]	AC50 [2]
Cc1ccccc1S(=O)(=O)Oc1cccc2c(O)cccc12	6.51 µM [falling, single point]	-10.7	
COC(=O)Cc1ccc(NC(=S)NCc2ccc(OC)cc2)cc1		-38.7	
CCOC(=O)c1cccc(NC(=O)CSc2nnc(C)n2CC2CCCO2)c1 (stereo not given)		-14.1	
CC(C)(C)c1ccc(SCCc2ccncc2)cc1	23.1 µM [falling, single point]	-43.2	18.4 µM [falling, single point]
COc1ccc(C(=O)CCN2CCN(c3ccccc3F)CC2)cc1	14.1 µM [falling, single point]	-25.5	
CCCC(C(=O)NC1CCCC1)N(C(=O)Cn1nnc(-c2ccc(C)o2)n1)c1ccccc1F (stereo not given)		-4.84	
CC1(C)Cc2c(C#N)c(NCCN3CCOCC3)nc(-c3ccccc3)c2CO1	29.1 µM [rising, single point]	8.89	
CCOC(=O)C1=C(O)/C(=C/c2cccc(OC)c2O)N=C1C	0.517 µM [falling, partial curve, poor fit]	-16.9	6.51 µM [falling, single point]
COc1cc(OC)cc(C(=O)OCC(=O)c2ccc(S(=O)(=O)N3CCCCC3)cc2)c1		-15.2	
CCCCN(CC)S(=O)(=O)c1ccccc1		1.16	
CCCCCCCCn1c(N2CCN(c3cccc(Cl)c3)CC2)nc2c1c(=O)[nH]c(=O)n2C	2.06 µM [rising, partial curve]		
CCOC(=O)/C(C#N)=C/c1cn(CCC(=O)O)nc1-c1ccc(F)cc1		51.8	18.4 µM [rising, single point]
CCC(=O)N1CCC2(CC1)Oc1ccc(F)cc1C(=O)C21CC(c2ccc(Cl)cc2)=NO1 (stereo not given)	9.2 µM [rising, partial curve]	14.7	
CN1CCN(c2cnn(-c3ccccc3)c(=O)c2Br)CC1		-32.7	0.092 µM [falling, full curve]
COc1cc(-n2c(=O)c3ccccc3n(Cc3cc(=O)n4ccccc4n3)c2=O)cc(OC)c1OC	1.16 µM [falling, single point]	-28.6	0.651 µM [falling, single point]
O=C(CN(C(=O)CCC(=O)Nc1ccccn1)c1ccc(F)cc1)NCc1ccc(F)cc1	0.116 µM [falling, single point]	5.13	
O=C(COc1ccc(Cl)cc1Br)Nc1ccncc1	18.4 µM [falling, single point]	2.81	
Cc1cccc(/C(N)=N/OC(=O)COc2ccc(Cl)cc2)c1		7.1	6.51 µM [rising, single point]
Cc1nc(N2CCN(c3ccccn3)CC2)c2c(C)c(C(=O)Nc3c(F)cc(F)cc3Br)sc2n1	18.4 µM [falling, partial curve]	33.9	0.0326 µM [rising, full curve, poor fit]
Cc1ccc(C2c3c(oc4ccccc4c3=O)C(=O)N2c2nncs2)cc1 (stereo not given)			0.00461 µM [falling, full curve, poor fit]

SMILES	AC50 [1]	cell number change [%]	AC50 [2]
CN1C(=O)Cn2c1nc1ccccc12		10.8	
O=C(NCCc1cccnc1)c1cc(COc2ccc(F)cc2Cl)on1		-25.2	
Cc1cc(N2CCCC2)ccc1NC(=O)CN1C(=O)NC(C)(c2ccccc2)C1=O (stereo not given)	29.1 µM [rising, single point]	25.2	
O=C(CCSCCC(=O)NCc1ccco1)NCc1ccco1	20.6 µM [falling, single point]	-21.5	0.82 µM [falling, full curve, poor fit]
Cc1nonc1OCCn1nnnc1N	2.06 µM [falling, full curve]	-76.1	18.4 µM [falling, partial curve, poor fit]
O=C(NCn1cnccc1=O)c1ccccc1	18.4 µM [falling, partial curve]		
COc1ccccc1NC(=O)N[C@@H](Cc1c[nH]c2ccccc12)C(=O)NN		30.6	0.0517 µM [rising, full curve, poor fit]
Cc1cccc(NC(=O)CSc2nnc(NC(=O)c3ccco3)s2)c1	3.66 µM [falling, partial curve]	-7.29	5.8 µM [falling, single point]
O=C1NC(=S)SC1=C1CCCC1	6.51 µM [falling, single point]	-2.42	0.58 µM [falling, full curve]
CCOC(=O)c1c(-c2cccs2)csc1NC(=O)CNCCN1CCOCC1	0.82 µM [rising, single point]	-11.2	
Cc1ccc(CNC(=O)C(=O)NCC2OCCCN2S(=O)(=O)c2cccs2)cc1 (stereo not given)	14.6 µM [rising, partial curve, poor fit]	39.3	
O=C(CN(CCN1CCOCC1)C(=O)Cn1nnc(-c2ccc(F)cc2)n1)NC1CCCCC1		9.75	0.0461 µM [rising, full curve, poor fit]
CC(N)(C(=O)O)c1cccc(OCc2cccc(Cl)c2)c1 (stereo not given)		30.7	
COc1ccc(S(=O)(=O)N2CCCCCC2)cc1NC(=O)c1c2c(nc3ccccc13)CCN(Cc1ccccc1)C2	23.1 µM [falling, partial curve]	6.13	
Cc1ccc(C(=O)Nc2cccc(C(=O)O)c2)cc1S(=O)(=O)N1CCOCC1		-38.4	11.6 µM [falling, partial curve]
O=C(c1ccccc1S(=O)(=O)NCc1ccccc1)N1CCCCC1	0.206 µM [falling, full curve]	-7.8	
O=C(Nc1cccnc1)c1sc(Nc2ccccc2F)nc1-c1ccccc1	0.651 µM [rising, single point]		0.651 µM [rising, single point]
O=C(N=C1SC2CS(=O)(=O)CC2N1CCc1ccc(F)cc1)C1CCCCC1 (stereo not given)		-15.2	
CC1(C)CC(=O)C(N=Nc2ccc(OC(F)F)cc2)=C(O)C1		19.3	0.231 µM [rising, full curve, poor fit]
CCOC(=O)c1cnc2ccc(OC)cc2c1Nc1ccc2c(c1)OCCO2	8.2 µM [falling, partial curve]	-37.6	32.6 µM [falling, single point]
